Data as given in PubChem BioAssay AID1671195 (Yale University, 2021).
The deposit covers about 22,000 reagents; this is an unselected part. About 1,510 of them (6.9%) were called active. 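Active includes knockdowns raising or lowering LDL uptake; positive z-scores mean more uptake, negative mean less.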

- Test: 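Genes whose knockdown alters LDL uptake in liver cancer cells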 (primary screen)
- System: human Huh7 hepatoma cells
- Reagents: siRNA pool against human genes, 18 nM
- Timing: about 2 to 2.5 days of knockdown, then 8 h LDL uptake
- Treatment: DiI-labelled LDL at 30 µg/ml for 8 h, in lipoprotein-deficient serum medium
- Measurement: 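Per-cell DiI-LDL intensity by automated imaging; well means scaled to the plate median and given as a robust z-score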
- Direction: robust z-score: higher = more LDL uptake after knockdown
- Rule for the call: 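a gene counts as active if at least two replicate z-scores exceed ±2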

For GPR139 (GeneID 124274), the values are robust z-score, replicate 1 = -0.523; robust z-score, replicate 2 = 0.0688; robust z-score, replicate 3 = -0.515; inactive. Against RAP2C (GeneID 57826) the deposit lists robust z-score, replicate 1 = 1.44; robust z-score, replicate 2 = 0.619; robust z-score, replicate 3 = 2.89; inactive. GDPD5 (GeneID 81544) showed robust z-score, replicate 1 = 1.61; robust z-score, replicate 2 = 1.17; robust z-score, replicate 3 = 0.436; inactive. For ADA2 (GeneID 51816) the deposit lists robust z-score, replicate 1 = 0.899; robust z-score, replicate 2 = 0.372; robust z-score, replicate 3 = 0.48; inactive. Depletion of TUBG1 (GeneID 7283) resulted in: robust z-score, replicate 1 = -0.563; robust z-score, replicate 2 = -1.17; robust z-score, replicate 3 = -0.525; inactive. Knock-down of PTGES3P3 (GeneID 441050) came out at: robust z-score, replicate 1 = -0.269; robust z-score, replicate 2 = -0.108; robust z-score, replicate 3 = -0.686; inactive.

For LINC00926 (GeneID 283663) the deposit lists robust z-score, replicate 1 = -0.785; robust z-score, replicate 2 = -0.913; robust z-score, replicate 3 = -0.616; inactive. SPRR1B (GeneID 6699) showed robust z-score, replicate 1 = 1.51; robust z-score, replicate 2 = 4.75; robust z-score, replicate 3 = 2.6; active. MICB (GeneID 4277) gave robust z-score, replicate 1 = -0.332; robust z-score, replicate 2 = -0.0363; robust z-score, replicate 3 = -0.034; inactive. After knock-down of ERI3 (GeneID 79033) the results were robust z-score, replicate 1 = 0.33; robust z-score, replicate 2 = -0.0194; robust z-score, replicate 3 = 0.905; inactive. With knock-down of PITRM1 (GeneID 10531), the record shows robust z-score, replicate 1 = -0.613; robust z-score, replicate 2 = -0.27; robust z-score, replicate 3 = -0.414; inactive. REPS1 (GeneID 85021) showed robust z-score, replicate 1 = 0.483; robust z-score, replicate 2 = 0.914; robust z-score, replicate 3 = 1.57; inactive.

2 successive entries already listed, quoted:
TUBG1 (GeneID 7283) | robust z-score, replicate 1 = -0.563; robust z-score, replicate 2 = -1.17; robust z-score, replicate 3 = -0.525; activity call = inactive
PTGES3P3 (GeneID 441050) | robust z-score, replicate 1 = -0.269; robust z-score, replicate 2 = -0.108; robust z-score, replicate 3 = -0.686; activity call = inactive
